# Assay results from publication doi:10.1101/2024.01.30.577963.
# Protein sequences, listed by entry. Tags and fused reporters are not part of them.
# UniProt P53224: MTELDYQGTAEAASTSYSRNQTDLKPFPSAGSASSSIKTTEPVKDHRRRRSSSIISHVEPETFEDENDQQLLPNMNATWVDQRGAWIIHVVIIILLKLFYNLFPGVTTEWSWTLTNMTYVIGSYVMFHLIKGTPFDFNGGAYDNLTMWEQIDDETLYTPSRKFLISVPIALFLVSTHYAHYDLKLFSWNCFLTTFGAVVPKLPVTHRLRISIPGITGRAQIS
# Results are given in words; binding and its absence hold for the method and conditions named. For part of these data: In cells and extracts the contact can be indirect. Some results given as binding are weak or reduced against the parent protein; the word gives no strength. For part of these data: Tags and fused reporters may be left off the sequences shown.
# T1: ALFA-Lcb1 (S. cerevisiae) (UniProt P25045)
# T1 sequence: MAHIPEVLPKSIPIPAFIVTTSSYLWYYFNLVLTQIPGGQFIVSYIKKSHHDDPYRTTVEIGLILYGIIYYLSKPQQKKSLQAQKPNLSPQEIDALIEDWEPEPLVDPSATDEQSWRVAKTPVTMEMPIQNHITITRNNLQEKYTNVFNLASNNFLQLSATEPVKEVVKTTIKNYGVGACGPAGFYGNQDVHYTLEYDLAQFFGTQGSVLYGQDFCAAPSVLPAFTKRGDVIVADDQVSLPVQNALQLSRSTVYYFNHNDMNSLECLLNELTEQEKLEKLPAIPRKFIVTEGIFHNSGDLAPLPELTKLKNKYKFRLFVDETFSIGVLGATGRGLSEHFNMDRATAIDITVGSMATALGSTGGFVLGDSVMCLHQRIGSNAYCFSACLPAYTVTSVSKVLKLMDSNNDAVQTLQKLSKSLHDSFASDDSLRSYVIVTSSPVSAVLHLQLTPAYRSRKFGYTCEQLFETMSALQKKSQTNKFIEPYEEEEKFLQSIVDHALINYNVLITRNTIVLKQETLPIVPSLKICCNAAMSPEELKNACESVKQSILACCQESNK
# T2: Lcb1 with an internal 3xFLAG epitope inserted after P9 (S. cerevisiae) (UniProt P25045)
# T2 sequence: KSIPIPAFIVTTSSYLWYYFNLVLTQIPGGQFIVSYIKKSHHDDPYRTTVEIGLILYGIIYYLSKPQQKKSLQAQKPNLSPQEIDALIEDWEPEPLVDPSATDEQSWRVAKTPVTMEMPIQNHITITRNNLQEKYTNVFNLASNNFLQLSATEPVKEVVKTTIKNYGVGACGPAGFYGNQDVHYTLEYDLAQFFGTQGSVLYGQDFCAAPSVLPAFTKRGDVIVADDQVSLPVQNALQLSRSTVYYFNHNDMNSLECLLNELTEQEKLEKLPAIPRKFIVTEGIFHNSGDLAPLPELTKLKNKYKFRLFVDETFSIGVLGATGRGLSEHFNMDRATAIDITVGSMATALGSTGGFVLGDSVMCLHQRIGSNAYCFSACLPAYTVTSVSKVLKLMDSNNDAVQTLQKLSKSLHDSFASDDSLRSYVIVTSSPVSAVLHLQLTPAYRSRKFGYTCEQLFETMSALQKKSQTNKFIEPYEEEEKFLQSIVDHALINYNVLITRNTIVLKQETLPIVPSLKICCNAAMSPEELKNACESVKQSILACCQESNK
# T3: Tsc3 (S. cerevisiae) (UniProt Q3E790)
# T3 sequence: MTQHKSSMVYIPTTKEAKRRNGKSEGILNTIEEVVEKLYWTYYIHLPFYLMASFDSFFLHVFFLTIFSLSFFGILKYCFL
# What was measured:
# [1] = molecular target: T1, ALFA-Lcb1 (S. cerevisiae); experiment: co-IP
# [2] = molecular target: T2, Lcb1 with an internal 3xFLAG epitope inserted after P9 (S. cerevisiae); experiment: cryo-EM structure
# Tsc3 (S. cerevisiae) = molecular target: T3, Tsc3 (S. cerevisiae); experiment: cryo-EM structure
# [3] = molecular target: T2, Lcb1 with an internal 3xFLAG epitope inserted after P9 (S. cerevisiae); experiment: co-IP
Molecule,binding [1],binding [2],further results
N-terminally 3xFLAG-tagged Orm1 (from UniProt P53224 1-222),binds,,
"Orm1 (endogenous, untagged) (from UniProt P53224 1-222)",binds,,
"Lcb2 (enzyme, UniProt P40970 1-561, PLP covalently bound to the ε-amino group of K366 as an internal aldimine) MSTPANYTRVPLCEPEELPDDIQKENEYGTLDSPGHLYQVKSRHGKPLPEPVVDTPPYYISLLTYLNYLILIILGHVHDFLGMTFQKNKHLDLLEHDGLAPWFSNFESFYVRRIKMRIDDCFSRPTTGVPGRFIRCIDRISHNINEYFTYSGAVYPCMNLSSYNYLGFAQSKGQCTDAALESVDKYSIQSGGPRAQIGTTDLHIKAEKLVARFIGKEDALVFSMGYGTNANLFNAFLDKKCLVISDELNHTSIRTGVRLSGAAVRTFKHGDMVGLEKLIREQIVLGQPKTNRPWKKILICAEGLFSMEGTLCNLPKLVELKKKYKCYLFIDEAHSIGAMGPTGRGVCEIFGVDPKDVDILMGTFTKSFGAAGGYIAADQWIIDRLRLDLTTVSYSESMPAPVLAQTISSLQTISGEICPGQGTERLQRIAFNSRYLRLALQRLGFIVYGVADSPVIPLLLYCPSKMPAFSRMMLQRRIAVVVVAYPATPLIESRVRFCMSASLTKEDIDYLLRHVSEVGDKLNLKSNSGKSSYDGKRQRWDIEEVIRRTPEDCKDDKYFVN",,binds,
"N-terminally 3xFLAG-tagged Orm2 (protein, UniProt Q06144 1-216) MIDRTKNESPAFEESPLTPNVSNLKPFPSQSNKISTPVTDHRRRRSSSVISHVEQETFEDENDQQMLPNMNATWVDQRGAWLIHIVVIVLLRLFYSLFGSTPKWTWTLTNMTYIIGFYIMFHLVKGTPFDFNGGAYDNLTMWEQINDETLYTPTRKFLLIVPIVLFLISNQYYRNDMTLFLSNLAVTVLIGVVPKLGITHRLRISIPGITGRAQIS",binds,,
"Orm2 (endogenous, untagged) (protein, UniProt Q06144 1-216) MIDRTKNESPAFEESPLTPNVSNLKPFPSQSNKISTPVTDHRRRRSSSVISHVEQETFEDENDQQMLPNMNATWVDQRGAWLIHIVVIVLLRLFYSLFGSTPKWTWTLTNMTYIIGFYIMFHLVKGTPFDFNGGAYDNLTMWEQINDETLYTPTRKFLLIVPIVLFLISNQYYRNDMTLFLSNLAVTVLIGVVPKLGITHRLRISIPGITGRAQIS",binds,,
"Orm2^3A (non-phosphorylatable Orm2 mutant, S46A S47A S48A) (protein, UniProt Q06144 1-216) MIDRTKNESPAFEESPLTPNVSNLKPFPSQSNKISTPVTDHRRRRAAAVISHVEQETFEDENDQQMLPNMNATWVDQRGAWLIHIVVIVLLRLFYSLFGSTPKWTWTLTNMTYIIGFYIMFHLVKGTPFDFNGGAYDNLTMWEQINDETLYTPTRKFLLIVPIVLFLISNQYYRNDMTLFLSNLAVTVLIGVVPKLGITHRLRISIPGITGRAQIS",,binds,binding (Tsc3 (S. cerevisiae)): no binding
"Lcb1 with an internal 3xFLAG epitope inserted after P9 (enzyme, UniProt P25045 10-558) KSIPIPAFIVTTSSYLWYYFNLVLTQIPGGQFIVSYIKKSHHDDPYRTTVEIGLILYGIIYYLSKPQQKKSLQAQKPNLSPQEIDALIEDWEPEPLVDPSATDEQSWRVAKTPVTMEMPIQNHITITRNNLQEKYTNVFNLASNNFLQLSATEPVKEVVKTTIKNYGVGACGPAGFYGNQDVHYTLEYDLAQFFGTQGSVLYGQDFCAAPSVLPAFTKRGDVIVADDQVSLPVQNALQLSRSTVYYFNHNDMNSLECLLNELTEQEKLEKLPAIPRKFIVTEGIFHNSGDLAPLPELTKLKNKYKFRLFVDETFSIGVLGATGRGLSEHFNMDRATAIDITVGSMATALGSTGGFVLGDSVMCLHQRIGSNAYCFSACLPAYTVTSVSKVLKLMDSNNDAVQTLQKLSKSLHDSFASDDSLRSYVIVTSSPVSAVLHLQLTPAYRSRKFGYTCEQLFETMSALQKKSQTNKFIEPYEEEEKFLQSIVDHALINYNVLITRNTIVLKQETLPIVPSLKICCNAAMSPEELKNACESVKQSILACCQESNK",,binds,
"Orm2^3D (phospho-mimetic Orm2 mutant, S46-48 to aspartate) (protein, UniProt Q06144 1-216) MIDRTKNESPAFEESPLTPNVSNLKPFPSQSNKISTPVTDHRRRRDDDVISHVEQETFEDENDQQMLPNMNATWVDQRGAWLIHIVVIVLLRLFYSLFGSTPKWTWTLTNMTYIIGFYIMFHLVKGTPFDFNGGAYDNLTMWEQINDETLYTPTRKFLLIVPIVLFLISNQYYRNDMTLFLSNLAVTVLIGVVPKLGITHRLRISIPGITGRAQIS",,,binding [3]: binds
